What all share (assay): proximity labelling; MitoID: GTPase-BirA*-HA-MAO chimera on mitochondria of transiently transfected HEK293T cells, 50 uM biotin 18 h, streptavidin beads, mass spectrometry, biological triplicates; hits by WD scores and volcano plots against the GDP-locked forms
The target in test [1] is Rab18(Q67L)-BirA*-HA-MAO (human) (UniProt Q9NP72).
The target of test [2] is Rab33B(Q92L)-BirA*-HA-MAO (human) (UniProt Q9H082).
In test [3] the target is Rab10(Q68L)-BirA*-HA-MAO (human) (UniProt P61026).
Test [4] addresses T1, Rab9A(Q66L)-BirA*-HA-MAO (human) (UniProt P51151).
T1 sequence: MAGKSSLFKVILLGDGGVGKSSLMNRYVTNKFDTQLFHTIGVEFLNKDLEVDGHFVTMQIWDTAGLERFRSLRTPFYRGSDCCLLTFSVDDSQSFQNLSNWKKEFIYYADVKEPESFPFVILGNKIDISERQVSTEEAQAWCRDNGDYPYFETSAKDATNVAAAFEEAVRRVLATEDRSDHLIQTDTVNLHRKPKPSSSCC

Protein sequences, listed by entry. Tags and fused reporters are not part of them. Lines headed by an entry give the natural chain unless they say otherwise; changes in a name come on top.
UniProt Q9NP72: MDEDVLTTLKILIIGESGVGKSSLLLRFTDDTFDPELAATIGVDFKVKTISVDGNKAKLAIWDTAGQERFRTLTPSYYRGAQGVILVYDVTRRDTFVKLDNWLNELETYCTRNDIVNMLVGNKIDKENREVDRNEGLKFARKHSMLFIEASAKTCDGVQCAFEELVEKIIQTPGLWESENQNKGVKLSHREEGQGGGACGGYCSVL
UniProt Q9H082: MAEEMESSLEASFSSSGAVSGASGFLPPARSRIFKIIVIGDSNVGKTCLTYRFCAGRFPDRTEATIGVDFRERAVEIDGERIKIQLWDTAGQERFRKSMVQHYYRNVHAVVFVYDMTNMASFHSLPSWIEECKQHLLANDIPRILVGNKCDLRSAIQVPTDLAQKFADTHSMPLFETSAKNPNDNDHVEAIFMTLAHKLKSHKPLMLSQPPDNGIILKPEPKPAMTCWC
UniProt P61026: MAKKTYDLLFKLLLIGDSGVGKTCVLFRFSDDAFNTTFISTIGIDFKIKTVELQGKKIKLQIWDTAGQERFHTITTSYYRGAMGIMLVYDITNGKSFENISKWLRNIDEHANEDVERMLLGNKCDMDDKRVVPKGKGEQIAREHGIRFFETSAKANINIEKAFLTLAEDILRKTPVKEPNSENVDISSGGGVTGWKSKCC

These are yes or no findings as the source states them, for the method shown. Binding seen in cells or lysates may run through a third protein. Here binding means that the protein was enriched with, or labelled near, the bait; the list need not be complete. For some of these results: Where a sequence is shown, tags or fusion partners need not be part of it.

B1: SCFD2 (protein, UniProt Q8WU76 1-684)
chain: MSASGVLSFTQQGWEQVLAKVKRAVVYLDAACAESLHWGCGSTRLLEAVGGPDCHLREFEPDAIGGGAKQPKAVFVLSCLLKGRTVEILRDIICRSHFQYCVVVTTVSHAVHLTANHVPAAAAAEMEGQQPVFEQLEEKLCEWMGNMNYTAEVFHVPLLLAPVAPHFALTPAFASLFPLLPQDVHLLNSARPDKRKLGSLGDVDSTTLTPELLLQIRCLVSGLSSLCEHLGVREECFAVGSLSQVIAADLANYAPAKNRKKTAAGRASVVFVDRTLDLTGAVGHHGDNLVEKIISALPQLPGHTNDVMVNMIALTALHTEEENYNVVAPGCLSQSSDTTAKALWEALLNTKHKEAVMEVRRHLVEAASRENLPIKMSMGRVTPGQLMSYIQLFKNNLKALMNHCGLLQLGLATAQTLKHPQTAKWDNFLAFERLLLQSIGESAMSVVLNQLLPMIKPVTQRTNEDYSPEELLILLIYIYSVTGELTVDKDLCEAEEKVKKALAQVFCEESGLSPLLQKITDWDSSINLTFHKSKIAVDELFTSLRDIAGARSLLKQFKSVYVPGNHTHQASYKPLLKQVVEEIFHPERPDSVDIEHMSSGLTDLLKTGFSMFMKVSRPHPSDYPLLILFVVGGVTVSEVKMVKDLVASLKPGTQVIVLSTRLLKPLNIPELLFATDRLHPDLGF
Regarding B1, the binding result in test [1] was “binds”.

B2: RUFY3 (protein, UniProt Q7L099 1-469)
chain: MSALTPPTDMPTPTTDKITQAAMETIYLCKFRVSMDGEWLCLRELDDISLTPDPEPTHEDPNYLMANERMNLMNMAKLSIKGLIESALNLGRTLDSDYAPLQQFFVVMEHCLKHGLKAKKTFLGQNKSFWGPLELVEKLVPEAAEITASVKDLPGLKTPVGRGRAWLRLALMQKKLSEYMKALINKKELLSEFYEPNALMMEEEGAIIAGLLVGLNVIDANFCMKGEDLDSQVGVIDFSMYLKDGNSSKGTEGDGQITAILDQKNYVEELNRHLNATVNNLQAKVDALEKSNTKLTEELAVANNRIITLQEEMERVKEESSYILESNRKGPKQDRTAEGQALSEARKHLKEETQLRLDVEKELEMQISMRQEMELAMKMLEKDVCEKQDALVSLRQQLDDLRALKHELAFKLQSSDLGVKQKSELNSRLEEKTNQMAATIKQLEQSEKDLVKQAKTLNSAANKLIPKHH
For the molecule B2, in test [2], the binding entry was “binds”.

B3: ZW10 (protein, UniProt O43264 1-779)
chain: MASFVTEVLAHSGRLEKEDLGTRISRLTRRVEEIKGEVCNMISKKYSEFLPSMQSAQGLITQVDKLSEDIDLLKSRIESEVRRDLHVSTGEFTDLKQQLERDSVVLSLLKQLQEFSTAIEEYNCALTEKKYVTGAQRLEEAQKCLKLLKSRKCFDLKILKSLSMELTIQKQNILYHLGEEWQKLIVWKFPPSKDTSSLESYLQTELHLYTEQSHKEEKTPMPPISSVLLAFSVLGELHSKLKSFGQMLLKYILRPLASCPSLHAVIESQPNIVIIRFESIMTNLEYPSPSEVFTKIRLVLEVLQKQLLDLPLDTDLENEKTSTVPLAEMLGDMIWEDLSECLIKNCLVYSIPTNSSKLQQYEEIIQSTEEFENALKEMRFLKGDTTDLLKYARNINSHFANKKCQDVIVAARNLMTSEIHNTVKIIPDSKINVPELPTPDEDNKLEVQKVSNTQYHEVMNLEPENTLDQHSFSLPTCRISESVKKLMELAYQTLLEATTSSDQCAVQLFYSVRNIFHLFHDVVPTYHKENLQKLPQLAAIHHNNCMYIAHHLLTLGHQFRLRLAPILCDGTATFVDLVPGFRRLGTECFLAQMRAQKGELLERLSSARNFSNMDDEENYSAASKAVRQVLHQLKRLGIVWQDVLPVNIYCKAMGTLLNTAISEVIGKITALEDISTEDGDRLYSLCKTVMDEGPQVFAPLSEESKNKKYQEEVPVYVPKWMPFKELMMMLQASLQEIGDRWADGKGPLAAAFSSSEVKALIRALFQNTERRAAALAKIK
Take B3: in test [1], the binding result is given as “binds”.

B4: KIF3B (protein, UniProt O15066 1-747)
chain: MSKLKSSESVRVVVRCRPMNGKEKAASYDKVVDVDVKLGQVSVKNPKGTAHEMPKTFTFDAVYDWNAKQFELYDETFRPLVDSVLQGFNGTIFAYGQTGTGKTYTMEGIRGDPEKRGVIPNSFDHIFTHISRSQNQQYLVRASYLEIYQEEIRDLLSKDQTKRLELKERPDTGVYVKDLSSFVTKSVKEIEHVMNVGNQNRSVGATNMNEHSSRSHAIFVITIECSEVGLDGENHIRVGKLNLVDLAGSERQAKTGAQGERLKEATKINLSLSALGNVISALVDGKSTHIPYRDSKLTRLLQDSLGGNAKTVMVANVGPASYNVEETLTTLRYANRAKNIKNKPRVNEDPKDALLREFQEEIARLKAQLEKRSIGRRKRREKRREGGGSGGGGEEEEEEGEEGEEEGDDKDDYWREQQEKLEIEKRAIVEDHSLVAEEKMRLLKEKEKKMEDLRREKDAAEMLGAKIKAMESKLLVGGKNIVDHTNEQQKILEQKRQEIAEQKRREREIQQQMESRDEETLELKETYSSLQQEVDIKTKKLKKLFSKLQAVKAEIHDLQEEHIKERQELEQTQNELTRELKLKHLIIENFIPLEEKSKIMNRAFFDEEEDHWKLHPITRLENQQMMKRPVSAVGYKRPLSQHARMSMMIRPEARYRAENIVLLELDMPSRTTRDYEGPAIAPKVQAALDAALQDEDEIQVDASSFESTANKKSKARPKSGRKSGSSSSSSGTPASQLYPQSRGLVPK
Take B4: the binding entry in test [3] is listed as “binds”.

B5: Rabaptin-5 (protein, UniProt Q15276 1-862)
chain: MAQPGPASQPDVSLQQRVAELEKINAEFLRAQQQLEQEFNQKRAKFKELYLAKEEDLKRQNAVLQAAQDDLGHLRTQLWEAQAEMENIKAIATVSENTKQEAIDEVKRQWREEVASLQAVMKETVRDYEHQFHLRLEQERTQWAQYRESAEREIADLRRRLSEGQEEENLENEMKKAQEDAEKLRSVVMPMEKEIAALKDKLTEAEDKIKELEASKVKELNHYLEAEKSCRTDLEMYVAVLNTQKSVLQEDAEKLRKELHEVCHLLEQERQQHNQLKHTWQKANDQFLESQRLLMRDMQRMEIVLTSEQLRQVEELKKKDQEDDEQQRLNKRKDHKKADVEEEIKIPVVCALTQEESSAQLSNEEEHLDSTRGSVHSLDAGLLLPSGDPFSKSDNDMFKDGLRRAQSTDSLGTSGSLQSKALGYNYKAKSAGNLDESDFGPLVGADSVSENFDTASLGSLQMPSGFMLTKDQERAIKAMTPEQEETASLLSSVTQGMESAYVSPSGYRLVSETEWNLLQKEVHNAGNKLGRRCDMCSNYEKQLQGIQIQEAETRDQVKKLQLMLRQANDQLEKTMKDKQELEDFIKQSSEDSSHQISALVLRAQASEILLEELQQGLSQAKRDVQEQMAVLMQSREQVSEELVRLQKDNDSLQGKHSLHVSLQQAEDFILPDTTEALRELVLKYREDIINVRTAADHVEEKLKAEILFLKEQIQAEQCLKENLEETLQLEIENCKEEIASISSLKAELERIKVEKGQLESTLREKSQQLESLQEIKISLEEQLKKETAAKATVEQLMFEEKNKAQRLQTELDVSEQVQRDFVKLSQTLQVQLERIRQADSLERIRAILNDTKLTDINQLPET
On to B5, for which the binding result in test [2] is listed as “binds”.

B6: NDE1/NudE (protein, UniProt Q9NXR1 1-335)
chain: MEDSGKTFSSEEEEANYWKDLAMTYKQRAENTQEELREFQEGSREYEAELETQLQQIETRNRDLLSENNRLRMELETIKEKFEVQHSEGYRQISALEDDLAQTKAIKDQLQKYIRELEQANDDLERAKRATIMSLEDFEQRLNQAIERNAFLESELDEKENLLESVQRLKDEARDLRQELAVQQKQEKPRTPMPSSVEAERTDTAVQATGSVPSTPIAHRGPSSSLNTPGSFRRGLDDSTGGTPLTPAARISALNIVGDLLRKVGALESKLASCRNLVYDQSPNRTGGPASGRSSKNRDGGERRPSSTSVPLGDKGLDTSCRWLSKSTTRSSSSC
For B6, the binding result in test [4] is “binds”.

B7: HPS3 (protein, UniProt Q969F9 1-1004)
chain: MVQLYNLHPFGSQQVVPCKLEPDRFCGGGRDALFVAAGCKVEAFAVAGQELCQPRCAFSTLGRVLRLAYSEAGDYLVAIEEKNKATFLRAYVNWRNKRTENSRVCIRMIGHNVEGPFSKAFRDQMYIIEMPLSEAPLCISCCPVKGDLLVGCTNKLVLFSLKYQIINEEFSLLDFERSLIIHIDNITPVEVSFCVGYVAVMSDLEVLIVKLESGPKNGERVHHHPHKTNNRIRRTEEGISNEISQLESDDFVICQKPLELLGEKSEQSGLSVTLESTGLADEKRKYSHFQHLLYRRFAPDISSYVLSDDIKLHSLQLLPIYQTGSLTSDGKNLSQEKELLSLFCFFSLPHVGYLYMVVKSVELMSVYQYPEKSQQAVLTPQFLHVITSNNLQCFTVRCSAAAAREEDPYMDTTLKACPPVSMDVCALRIQLFIGLKAICHFKNHIILLTKAEPEAIPERRQSPKRLLSRKDTSVKIKIPPVAEAGWNLYIVNTISPVQLYKEMVDYSNTYKTVKTQSCIHLLSEAHLLVRAALMDASQLEPGEKAELLEAFKESCGHLGDCYSRLDSQHSHLTLPYYKMSGLSMAEVLARTDWTVEDGLQKYERGLIFYINHSLYENLDEELNEELAAKVVQMFYVAEPKQVPHILCSPSMKNINPLTAMSYLRKLDTSGFSSILVTLTKAAVALKMGDLDMHRNEMKSHSEMKLVCGFILEPRLLIQQRKGQIVPTELALHLKETQPGLLVASVLGLQKNNKIGIEEADSFFKVLCAKDEDTIPQLLVDFWEAQLVACLPDVVLQELFFKLTSQYIWRLSKRQPPDTTPLRTSEDLINACSHYGLIYPWVHVVISSDSLADKNYTEDLSKLQSLICGPSFDIASIIPFLEPLSEDTIAGLSVHVLCRTRLKEYEQCIDILLERCPEAVIPYANHELKEENRTLWWKKLLPELCQRIKCGGEKYQLYLSSLKETLSIVAVELELKDFMNVLPEDGTATFFLPYLLYCSRKKPLT
Turning to B7, the binding entry in test [4] is listed as “binds”.

The values above are taken from paper PMC6639074.
